Results on 108 sequences are retold here after PubChem BioAssay AID1347426 (Functional Genomics Laboratory (NCATS/FGL), 2020).

Out of some 31,000 sequences screened, about 1,400 (4.5%) were called active.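 The calls were made as follows: active = median seed-adjusted z-score above 1 or below -1; inactive = the rest.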 The list shows a part of the results.

This assay can be described thus: Novel Modifiers of Survival Motor Neuron (SMN) Protein: Gene Identification via Genome-wide siRNA Screen.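 Also: luminescence tracks full-length SMN protein made from the SMN2 reporter.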 The settings on record: HEK293T SMN2-luciferase reporter, siRNA knockdown, 72 h; actives lie on both sides. A digest of the protocol:
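siRNA screen, 10418 genes ×3 siRNAs; 1 pmol/well, lipid reverse transfection into HEK293T SMN2-luc reporter line. 72 h, 37 °C, 5% CO2; ONE-Glo readout. Data: neg-ctrl normalized, log10, MAD; hit = MAD >1.0 or < -1.0.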
In general terms: A reporter such as luciferase makes a cellular process visible.
Consider UGACGACACUGACCGCAGATT against UBE2S, for which the median seed-adjusted z-score was inactive: 0.348. In the case of GCAAGGAUUUGGACGGUUUTT against MYST4 it was inactive: 0.138; in that of GGCAAUGCUUUACUAUGAATT against ABCG8, inactive: -0.0233; in that of GGAUAUUGAAAGUUAUGAATT against SGCZ, inactive: 0.0893. In the case of GCUACACCCUAAUCACAGATT against SLC22A1 it was inactive: -0.637; in that of AGAUAGAAAUUGACUUUGATT against BRD3, inactive: 0.633; in that of GGUUCACAGUGCAUAUACATT against CASP10, inactive: -0.0372. CCAACCUUUUUAGACAUCATT against ZNF394: the median seed-adjusted z-score is inactive: -0.462. Under CCCUCUCCGUGUCCUACAATT against SLC6A17 stands inactive: -0.41.

Regarding CAUCACUUGUGAUGGUAAATT against FABP5, the median seed-adjusted z-score was inactive: -0.258.

CGGCACCUGUUUCAAGAGATT against CHRND: the median seed-adjusted z-score was inactive: -0.112. In the case of CGUCGAUAUCAGAAUCCUATT against MST101 it was inactive: -0.293; in that of GCACUUACCAAAAAUCCGATT against MAP4K3, inactive: -0.49; in that of GUAUCUGGGUUGCACAUGATT against HRH1, inactive: 0.204. On to GCAAUGUGCCUACUCAUAUTT against LCLAT1, for which the median seed-adjusted z-score was inactive: 0.

For CCAAAAUUAUGGUCUGUGATT against CNTFR, the median seed-adjusted z-score was inactive: 0. With GUAUCAUGGAUGGAAAAGATT against ASRGL1, the median seed-adjusted z-score was inactive: 0. Under GCACCGAGCUUUACAGUGUTT against LARP1 stands inactive: 0.251; under GCAGUAUGAUGAGGAUGGATT against KLC4, inactive: 0. Under CGGCACUAAUGAUCUGGAATT against SEC11A stands inactive: -0.494; under GCCUGGGAAUGAACAUUGUTT against MS4A12, inactive: -0.881; under CAGUGUCCGAGAUCAUAGATT against ACSBG1, inactive: 0.113. In the case of GAUAUGUCUUCUACAAUAATT against ZNF280A it was inactive: -0.207; in that of CCUUAGUCCUGAUCAACCUTT against TTLL6, inactive: -0.661. For the sequence AACCCUACCUGGCAUUGUATT against DYNLL2, the median seed-adjusted z-score was inactive: -0.201. Under CCAUCCAUCCUUCAACUUATT against PNPLA3 stands inactive: -0.0642; under GCACUAGCAGAGUCCGAAATT against OPRK1, active: -1.08; under CUACCACAACUUCACCAAATT against TSP50, inactive: 0.133.

Consider CGAGAUAGGCAAUACGAAATT against ENTPD7, for which the median seed-adjusted z-score is inactive: 0.368. Under CAAGCGAUGUUUUUCGUUUTT against USP13 stands inactive: -0.044; under GGAUGUGGACGGUAUGUCATT against BRAP, inactive: 0.267. In the case of CAUUCGUCGCUGAACAGAATT against EIF4G1 it was inactive: -0.978.

CCCAACAACUGGUAUCUUUTT against CD33: the median seed-adjusted z-score is inactive: -0.355. Under CCACCUAGCUUGUAACGAATT against EP400 stands active: 1.83. In the case of GGACUGUAAAGGACAUAUUTT against TRPC3 it was inactive: -0.0856; in that of GGUUGACCGUGGAGGUAGATT against KRT18, inactive: 0.558.

For the sequence GGUCCAGAGCGACUUCAUGTT against POU3F3, the median seed-adjusted z-score is inactive: -0.366. For GGAGUUUAUCUAUACAGCATT against HAL, the median seed-adjusted z-score was inactive: 0.

For ACACUGACCUGUUCGAGUATT against SV2A, the median seed-adjusted z-score was inactive: 0.138. In the case of GAAGGAAUGAAAUCCGGAATT against TRIM8 it was inactive: -0.296; in that of GGAAGACUAGGAAUCGGAATT against NYX, inactive: 0.0685. Consider GCAAUAUUCAUGUUACCAATT against CDH24, for which the median seed-adjusted z-score was inactive: 0.31. In the case of CCAAAUACCAGAUACUGUUTT against VIPR2 it was inactive: 0.706; in that of CACCAACUAAUGUUACAAUTT against IFNGR1, inactive: -0.279; in that of GUGGUGAGAUUCUACCGUATT against IQGAP3, inactive: -0.183. For GGGUCCAUUCCUCACUAUATT against KRTAP5-7, the median seed-adjusted z-score was inactive: -0.279. In the case of UGCUGGUGCUCGUCCUCUATT against OPN3 it was inactive: -0.916; in that of GCACAACGGCAACUAUACATT against DSCAML1, inactive: 0.237; in that of GCAAGACUGUGAUUCUGGUTT against RBM19, inactive: 0.204.

As for AAAGCUGGAUGGUACUCCATT against DNAL1, the median seed-adjusted z-score is inactive: 0.866.

For GGACAAAACUCCUCUCUAUTT against MED27, the median seed-adjusted z-score is active: -1.62. In the case of GCAUCGUGCUGAAGUAUGATT against NSUN2 it was inactive: -0.707. Take CCACUAUGGUUACAGCACUTT against ATP1B2: the median seed-adjusted z-score is inactive: -0.185. In the case of GCACAUGACUCAGAAGGAATT against WDFY3 it was inactive: -0.12; in that of GCUUAUGCAUCAUAUGAUATT against ANGPTL5, inactive: 0.

Consider ACAUCAAGGCGCAUGUGAATT against IL10, for which the median seed-adjusted z-score was inactive: 0.0967.

GCGAUGACAUUGACCUAGATT against OPTC: the median seed-adjusted z-score was inactive: 0.0953.

As for GAUCUUGUCGAAUAGAGCATT against HOXD10, the median seed-adjusted z-score was inactive: -0.374. In the case of CAGGGUCGAUUUAGAGGAATT against POLR3A it was inactive: 0.395. In the case of GGUCAUUCAGUACAUGAGATT against RIOK1 it was inactive: 0.0528.

For CACCUACUCUGACAACCAATT against HSPA1L, the median seed-adjusted z-score was active: -1.27. In the case of GGAUGGUCAUCUAUUUCUUTT against MMD2 it was inactive: -0.0908. CGAAUUAGCUGAGGAGAUATT against SLC17A8: the median seed-adjusted z-score is inactive: -0.332.

With GCCUCAGUCUUUGCAGUCUTT against CDCP2, the median seed-adjusted z-score is inactive: 0.0708. Turning to GCUGCGUCAUUUUCGAAAATT against MOXD1, the median seed-adjusted z-score is inactive: -0.162. In the case of CGAUUACGCUUCAGAGAUATT against PTP4A2 it was active: -1.45; in that of GGACAGCUACGUGAAGAUUTT against PAK6, inactive: -0.57. For the sequence GCACUUGUAUAAUCAGACUTT against MRLC2, the median seed-adjusted z-score was inactive: -0.492.

Consider GUCACGUACUCGCUGCUGATT against SMAD6, for which the median seed-adjusted z-score is inactive: -0.167. On to CAUUAGUACUUCGAUCUAUTT against PHCA, for which the median seed-adjusted z-score was inactive: 0.0568. On to GAGCUGACCUUAGGACCGATT against CALML3, for which the median seed-adjusted z-score was inactive: 0.

With CGAAGAUUAGUACAAGUCUTT against LCP1, the median seed-adjusted z-score is inactive: -0.386. In the case of CAAUCGUCAUAAUGUCUAUTT against A2M it was active: -1.96.

In the case of GCAGAGAUCUUUGUAGUCUTT against FTSJ3, the median seed-adjusted z-score is inactive: 0.437. In the case of CGAGUUCCGUCCCUACCAATT against COX6A2 it was inactive: 0.714; in that of GAUGGAAACCGUAAUCCUATT against P4HA1, inactive: -0.293. As to AGUUAGGCACAGUCAGACATT against POLD4, the median seed-adjusted z-score was inactive: 0.225.

On to CAGCGUACCCGAUACCUUATT against SIRPD, for which the median seed-adjusted z-score was inactive: -0.257. In the case of CGAGGAUUCAAGCUGAACATT against ARL2 it was inactive: 0.0301; in that of GGCACUCAGCGCAAGAAGATT against TIGD5, inactive: 0; in that of GCGCAUUCCUUUGCAAGCATT against AURKA, inactive: -0.108. Under GGACUGGAUUGAAAACCAUTT against KALRN stands inactive: 0.305; under GCGGAUACAAUGUGACGUATT against L1CAM, inactive: 0; under GGAGUUUGCAGACAACCGATT against WNK3, inactive: -0.466. As for CACCACUAAUGUCAACAAUTT against LPAR4, the median seed-adjusted z-score was inactive: -0.321.

For CCUCCAGCGAUGCUUCACATT against TIRAP, the median seed-adjusted z-score was inactive: -0.431. As for AGGCCGUGUUCGCAGAGUUTT against AQP5, the median seed-adjusted z-score was inactive: -0.116. In the case of CAAGCGAUGAUGACUCUAATT against RASGRF2, the median seed-adjusted z-score is inactive: -0.225. In the case of GGGACGAUUGUAUCAAGUATT against SLC27A4 it was inactive: 0.119; in that of GGCUUUUGGUUGUACUGCUTT against SLC27A6, inactive: -0.172. Regarding ACAUGGACAAUGCCGCAGATT against HSPBP1, the median seed-adjusted z-score was inactive: 0.368. In the case of ACAGCAUUUUACCACCCUATT against CHI3L1 it was inactive: 0.145; in that of GGAAAUACCGUAUAAAACUTT against ASB2, inactive: -0.825. Under GAUGGAUGUUCUACUGAAATT against ORC5L stands inactive: -0.126; under CAGCUUCAUUUAGAGUACATT against CSNK1G1, inactive: -0.255. In the case of CCAGCGAUGUAAUCGAAAATT against FABP6 it was inactive: 0.122; in that of ACACUAGUCUUAUCAAAAATT against SOX17, inactive: -0.46; in that of GAUUAUUGACACUCCCAUATT against PDHB, inactive: -0.478. For CGAGAAAGAAUUCCACUUUTT against HOXC5, the median seed-adjusted z-score is inactive: 0.507. Regarding GGAUGACUCAAAUUCAGGUTT against CBLL1, the median seed-adjusted z-score was inactive: -0.466.

Regarding AGCUGGGUAUGGAUGCUUATT against KRT6C, the median seed-adjusted z-score is inactive: -0.275. As to GUCAGAACCCUGUCUUUUATT against PXMP2, the median seed-adjusted z-score is inactive: -0.444.

For GAAAAACGAUGAAGGAGUATT against MYO16, the median seed-adjusted z-score was inactive: -0.072. Under GCAUCCAACCUUAAAUGAUTT against FMO5 stands inactive: 0.0069; under CAAUAAUGCUCGUCUAUGUTT against DERL2, inactive: -0.27. With GGUACUUUCUUAUUCAACUTT against MTM1, the median seed-adjusted z-score was inactive: 0.406. On to CUGUUCCAGUUGUGGCUCUTT against KRTAP5-1, for which the median seed-adjusted z-score was inactive: 0. Take AGAAAUCCAGGAGAAUGAATT against TERF2IP: the median seed-adjusted z-score was inactive: 0.765.
